Measurements: publication PMC3103430, “RecA Proteins from Deinococcus geothermalis and Deinococcus murrayi - Cloning, Purification and Biochemical Characterisation” (BMC Molecular Biology, 2011)

Experiments:
[1] = biological target: DmuRecA (Deinococcus murrayi DSM 11303) (UniProt E7CG23); experiment: competition with a labelled probe; conditions: with oligo(dT)35 in same tube, 0 or 10 mM Mg2+, ATPgS + ATP; 20 mM potassium phosphate pH 7.5, 0-10 mM MgCl2, 110 uM ATPgS + 300 uM ATP (ssDNA, 9 uM RecA) or 180 uM ATPgS + 500 uM ATP (dsDNA, 12 uM RecA); recombinant protein; residues 1-359; probe letters rebuilt from the primers and the genome
[2] = biological target: DgeRecA (Deinococcus geothermalis DSM 11302) (UniProt Q1IWF2); experiment: competition with a labelled probe; conditions: with oligo(dT)35 in same tube, 0 or 10 mM Mg2+, ATPgS + ATP; 20 mM potassium phosphate pH 7.5, 0-10 mM MgCl2, 110 uM ATPgS + 300 uM ATP (ssDNA, 9 uM RecA) or 180 uM ATPgS + 500 uM ATP (dsDNA, 12 uM RecA); recombinant protein; residues 1-358; probe letters rebuilt from the primers and the genome
[3] = biological target: DmuRecA (Deinococcus murrayi DSM 11303) (UniProt E7CG23); experiment: EMSA; conditions: ATPgS + ATP, 20 mM potassium phosphate pH 7.5, 0-10 mM MgCl2, 110 uM ATPgS + 300 uM ATP (ssDNA, 9 uM RecA) or 180 uM ATPgS + 500 uM ATP (dsDNA, 12 uM RecA), recombinant protein, residues 1-359
[4] = biological target: DgeRecA (Deinococcus geothermalis DSM 11302) (UniProt Q1IWF2); experiment: EMSA; conditions: ATPgS + ATP, 20 mM potassium phosphate pH 7.5, 0-10 mM MgCl2, 110 uM ATPgS + 300 uM ATP (ssDNA, 9 uM RecA) or 180 uM ATPgS + 500 uM ATP (dsDNA, 12 uM RecA), recombinant protein, residues 1-358
[5] = no Mg2+, probe letters rebuilt from the primers and the genome
[6] = protein preincubated 10 s at 80 C, assayed at 37 C with 10 mM Mg2+, label: 5'-fluorescein, single-stranded DNA

| Sequence | binding result [1] | binding result [2] | binding result ([3]; 10 mM Mg2+, more efficient than DgeRecA, probe letters rebuilt from the primers and the genome) | binding result [3, 5] | binding result ([4]; 10 mM Mg2+, less efficient than DmuRecA, probe letters rebuilt from the primers and the genome) | binding result [4, 5] | binding result ([3]; 10 mM Mg2+, 54.5 C (very slight), label: 5'-fluorescein, single-stranded DNA) | binding result ([3]; 10 mM Mg2+, above 54.5 C (55.6-65 C), label: 5'-fluorescein, single-stranded DNA) | binding result [3, 6] | binding result ([4]; 10 mM Mg2+, 58 C (very slight), label: 5'-fluorescein, single-stranded DNA) | binding result ([4]; 10 mM Mg2+, above 58 C (59.4-75 C), label: 5'-fluorescein, single-stranded DNA) | binding result [4, 6] |
| --- | --- | --- | --- | --- | --- | --- | --- | --- | --- | --- | --- | --- |
| GGACAAGGTCGCTGAAGCCTTCGGGAAGCTGACCACAGACCCGACGTCGGGGCTGACGGCGATGGCTCGCCAGTTCCATAACGTGTCGGCGGAGCAGATTGCGTATGTTGCTCAGTTGCAGCGTTCCGGCGATGAAGCCGGGGCATTGCAGGCGGCGAACGAGGCCGCAACGAAAGGGTTTGATGACCAGACCCGCCGCCTGAAAGAGAACATGGGCACGCTGGAGACCTGGGCAGACAGGACTGCGCGGGCATTCAAATCCATGTGGGATGCGGTGCTGGATATTGGTCGTCCTGATACCGCGCAGGAGATGCTGATTAAGGCAGAGGCTGCGTATAAGAAAGCAGACGACATCTGGAATCTGCGCAAGGATGATTATTTTGTTAACGATGAAGCGCGGGCGCGTTACTGGGATGATCGTGAAAAGGCCCGTCTTGCGCTTGAAGCCGCCCGAAAGAAGGCTGAGCAGCAGACTCAACAGGACAAAAATGCGCAGCAGCAGAGCGATACCGAAGCGTCACGGCTGAAATATACCGAAGAGGCGCAGAAGGCTTACGAACGGCTGCAGACGCCGCTGGAGAAATATACCGCCCGTCAGGA (double strand) [600 bp PCR product of lambda DNA] | binds more weakly | binds more weakly | binds | binds more weakly | binds | binds more weakly | – | – | – | – | – | – |
| TTTTTTTTTTTTTTTTTTTTTTTTTTTTTTTTTTT [oligo(dT)35] | – | – | – | – | – | – | binds more weakly | no binding | no binding | binds more weakly | no binding | no binding |

For part of these data: No signal at the amounts used counts as a negative. For part of these data: At least one verdict rests on a figure or table, not on a statement of the authors. The exact form of at least one protein or probe is not confirmed. The comparison behind a weaker result is the experiment's own reference, which may not be listed here.
